Data: the supplement of paper PMC4604168 (melanoma cell lines)
The other results are listed elsewhere or left out. Repeats are few or missing, and single values can be far off.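 Cells were imaged in 1,536-well plates, and nuclei stained with an antibody against cleaved PARP were counted against all DNA-stained nuclei to give the apoptosis fraction. Screening doses were chosen to leave most cells alive, and resting and induced cleaved-PARP levels differ strongly between cell lines.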

Legend:
Assay in all cases: cleaved PARP positive nuclei fraction relative to DMSO control; melanoma cells; higher = more apoptosis
Conditions in all cases: library dose: low library concentration; 72 h
[1] = system: 501Mel
[2] = system: A101D
[3] = system: A2058
[4] = system: A375
[5] = system: C32
[6] = system: CBRC008 (line from a melanoma biopsy)
[7] = system: CBRC014 (line from a melanoma biopsy)
[8] = system: CBRC016 (line from a melanoma biopsy)
[9] = system: CBRC017 (line from a melanoma biopsy)
[10] = system: CBRC034 (line from a melanoma biopsy)
[11] = system: COLO792
[12] = system: COLO800
[13] = system: COLO829
[14] = system: G361
[15] = system: IPC-298
[16] = system: IST-MEL1
[17] = system: LB2518-MEL
[18] = system: LOXIMVI
[19] = system: MEL-HO

| Compound | cleaved PARP positive nuclei fraction [1] [%] | cleaved PARP positive nuclei fraction [2] [%] | cleaved PARP positive nuclei fraction [3] [%] | cleaved PARP positive nuclei fraction [4] [%] | cleaved PARP positive nuclei fraction [5] [%] | cleaved PARP positive nuclei fraction [6] [%] | cleaved PARP positive nuclei fraction [7] [%] | cleaved PARP positive nuclei fraction [8] [%] | cleaved PARP positive nuclei fraction [9] [%] | cleaved PARP positive nuclei fraction [10] [%] | cleaved PARP positive nuclei fraction [11] [%] | cleaved PARP positive nuclei fraction [12] [%] | cleaved PARP positive nuclei fraction [13] [%] | cleaved PARP positive nuclei fraction [14] [%] | cleaved PARP positive nuclei fraction [15] [%] | cleaved PARP positive nuclei fraction [16] [%] | cleaved PARP positive nuclei fraction [17] [%] | cleaved PARP positive nuclei fraction [18] [%] | cleaved PARP positive nuclei fraction [19] [%] |
| --- | --- | --- | --- | --- | --- | --- | --- | --- | --- | --- | --- | --- | --- | --- | --- | --- | --- | --- | --- |
| Cc1cc(Nc2cc(N3CCN(C)CC3)nc(/C=C/c3ccccc3)n2)n[nH]1 + Cc1nc(Nc2ncc(C(=O)Nc3c(C)cccc3Cl)s2)cc(N2CCN(CCO)CC2)n1 [dasatanib] (first compound 0.04 µM, partner dose 0.004 µM) | 151 | 103 | 106 | 56.1 | 83.5 | 19.6 | 93.8 | 71.1 | 95.5 | 267 | 113 | 128 | 135 | 90.9 | 178 | 144 | 114 | 152 | 65.5 |
| Cn1c(=O)n(-c2ccc(C(C)(C)C#N)cc2)c2c3cc(-c4cnc5ccccc5c4)ccc3ncc21 + Clc1ccc(Nc2nnc(Cc3ccncc3)c3ccccc23)cc1 [vatalanib] (first compound 0.004 µM, partner dose 2 µM) | 304 | 275 | 138 | 558 | 77.9 | 61.2 | 118 | 186 | 131 | 64.3 | 111 | 148 | 87.9 | 139 | 47.7 | 66.1 | 224 | 154 | 35.2 |
| O=C(O)[C@@H]1[O][Sb](=[O])([O][Sb]2(=[O])[O][C@H]([C@H](O)CO)[C@H](O)[C@H](C(=O)O)[O]2)[O][C@H]([C@H](O)CO)[C@@H]1O (stereo partly specified) [stibogluconate] + Nc1ccn([C@@H]2O[C@H](CO)[C@@H](O)C2(F)F)c(=O)n1 [gemcitabine] (first compound 2 µM, partner dose 0.0004 µM) | 58.4 | 89 | 110 | 93.4 | 280 | 182 | 156 | 309 | 124 | 249 | 76.5 | 71 | 139 | 129 | 95.2 | 246 | 233 | 55.4 | 63.6 |
| Nc1nc(F)nc2c1ncn2[C@@H]1O[C@H](CO)[C@@H](O)[C@@H]1O [fludarabine] + C[C@]1(c2nc3c(C(N)=O)cccc3[nH]2)CCCN1 [Veliparib] (first compound 0.2 µM, partner dose 1.4 µM) | 3200 | 47.3 | 122 | 3710 | 78.9 | 71.3 | 93 | 28.8 | 80.8 | 49.7 | 143 | 57 | 102 | 94.5 | 90.4 | 62.9 | 94.2 | 52.5 | 13.6 |
| Cc1cc(Nc2cc(N3CCN(C)CC3)nc(/C=C/c3ccccc3)n2)n[nH]1 + Cn1nnc2c(C(N)=O)ncn2c1=O [temozolomide] (first compound 0.04 µM, partner dose 2 µM) | 113 | 96.7 | 197 | 236 | 79.8 | 72.1 | 118 | 119 | 128 | 97.6 | 64.8 | 168 | 163 | 44.2 | 45.4 | 67.3 | 245 | 22.1 | 25.6 |
| Nc1nc(F)nc2c1ncn2[C@@H]1O[C@H](CO)[C@@H](O)[C@@H]1O [fludarabine] + COc1ccc(Cl)c(Nc2nc3ccccc3nc2NS(=O)(=O)c2cccc(NC(=O)C(C)(C)N)c2)c1 [XL147] (first compound 0.2 µM, partner dose 0.8 µM) | 12800 | 55.2 | 166 | 5470 | 71.6 | 97.3 | 113 | 166 | 111 | 46.1 | 51.6 | 78.6 | 109 | 52.6 | 91.8 | 229 | 25.8 | 97.8 | 36.5 |
| Nc1nc(F)nc2c1ncn2[C@@H]1O[C@H](CO)[C@@H](O)[C@@H]1O [fludarabine] + C#Cc1cccc(Nc2ncnc3cc(OCCOC)c(OCCOC)cc23)c1 [erlotinib] (first compound 0.2 µM, partner dose 0.8 µM) | 15300 | 100 | 173 | 3040 | 150 | 105 | 104 | 385 | 109 | 84.6 | 188 | 84 | 136 | 76.4 | 221 | 155 | 105 | 45.9 | 272 |
| Cc1cc(Nc2cc(N3CCN(C)CC3)nc(/C=C/c3ccccc3)n2)n[nH]1 + O=C(O)c1ccc2c(c1)nc(Nc1cccc(Cl)c1)c1ccncc12 [CX4945] (first compound 0.04 µM, partner dose 0.4 µM) | 144 | 45.7 | 198 | 134 | 152 | 102 | 123 | 213 | 160 | 70.9 | 118 | 53.4 | 189 | 126 | 86.9 | 118 | 122 | 92.8 | 120 |
| C=C(c1ccc(C(=O)O)cc1)c1cc2c(cc1C)C(C)(C)CCC2(C)C [Bexarotene] + OCc1c[nH]c2ccccc12 [Indole-3-carbinol] (first compound 2 µM, partner dose 0.8 µM) | 140 | 96.9 | 130 | 59.1 | 65.7 | 52.3 | 104 | 172 | 163 | 33.7 | 183 | 81.4 | 116 | 106 | 40.7 | 426 | 106 | 110 | 121 |

As entered above:
Entry of Cc1cc(Nc2cc(N3CCN(C)CC3)nc(/C=C/c3ccccc3)n2)n[nH]1 + Cn1nnc2c(C(N)=O)ncn2c1=O [temozolomide] (first compound 0.04 µM, partner dose 2 µM) under cleaved PARP positive nuclei fraction [5] [%]: 79.8
Entry of Nc1nc(F)nc2c1ncn2[C@@H]1O[C@H](CO)[C@@H](O)[C@@H]1O [fludarabine] + COc1ccc(Cl)c(Nc2nc3ccccc3nc2NS(=O)(=O)c2cccc(NC(=O)C(C)(C)N)c2)c1 [XL147] (first compound 0.2 µM, partner dose 0.8 µM) under cleaved PARP positive nuclei fraction [4] [%]: 5470
